# Weaker means in comparison with the reference protein, sequence or condition of that experiment. For some assays here: Tags and fusion partners may be left off the protein sequences shown. For some assays here: Construct, isoform or probe ends are uncertain for at least one entry. For some assays here: At least one verdict rests on a figure or table, not on a statement of the authors.
# Chains of the proteins cited; added tags and fusions are not shown. A line that says so, or that is headed by a name, gives the form on record, which may keep a tag or linker. Residues count along the entry.
# UniProt P02771, 19-609: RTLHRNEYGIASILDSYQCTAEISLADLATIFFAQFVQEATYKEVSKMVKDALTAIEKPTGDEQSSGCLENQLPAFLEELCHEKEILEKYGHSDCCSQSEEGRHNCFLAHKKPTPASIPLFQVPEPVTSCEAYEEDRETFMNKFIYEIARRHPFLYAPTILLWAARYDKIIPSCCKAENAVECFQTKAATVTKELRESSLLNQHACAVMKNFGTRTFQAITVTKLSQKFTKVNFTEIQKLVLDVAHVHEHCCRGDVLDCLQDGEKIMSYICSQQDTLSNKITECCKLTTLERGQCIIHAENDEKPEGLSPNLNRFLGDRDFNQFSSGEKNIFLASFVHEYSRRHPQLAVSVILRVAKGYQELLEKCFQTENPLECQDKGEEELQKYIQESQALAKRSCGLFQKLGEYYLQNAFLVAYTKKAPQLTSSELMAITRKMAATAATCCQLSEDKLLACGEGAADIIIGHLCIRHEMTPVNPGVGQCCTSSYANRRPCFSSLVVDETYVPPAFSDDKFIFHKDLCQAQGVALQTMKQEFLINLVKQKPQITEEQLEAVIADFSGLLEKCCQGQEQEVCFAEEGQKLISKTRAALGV
# UniProt P09104, 2-434: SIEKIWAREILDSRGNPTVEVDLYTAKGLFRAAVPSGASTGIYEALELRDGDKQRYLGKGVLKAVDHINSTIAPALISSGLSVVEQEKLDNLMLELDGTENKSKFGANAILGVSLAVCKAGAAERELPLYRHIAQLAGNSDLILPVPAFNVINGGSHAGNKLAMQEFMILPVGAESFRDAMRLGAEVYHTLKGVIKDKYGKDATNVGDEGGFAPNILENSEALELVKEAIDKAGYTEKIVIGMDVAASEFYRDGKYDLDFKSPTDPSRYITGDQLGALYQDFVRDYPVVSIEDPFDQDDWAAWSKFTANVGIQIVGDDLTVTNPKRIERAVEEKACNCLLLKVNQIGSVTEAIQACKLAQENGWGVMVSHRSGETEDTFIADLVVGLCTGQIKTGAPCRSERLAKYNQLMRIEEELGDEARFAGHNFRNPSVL
# mucin-1 (MUC1) (human), one chain, as listed by the source: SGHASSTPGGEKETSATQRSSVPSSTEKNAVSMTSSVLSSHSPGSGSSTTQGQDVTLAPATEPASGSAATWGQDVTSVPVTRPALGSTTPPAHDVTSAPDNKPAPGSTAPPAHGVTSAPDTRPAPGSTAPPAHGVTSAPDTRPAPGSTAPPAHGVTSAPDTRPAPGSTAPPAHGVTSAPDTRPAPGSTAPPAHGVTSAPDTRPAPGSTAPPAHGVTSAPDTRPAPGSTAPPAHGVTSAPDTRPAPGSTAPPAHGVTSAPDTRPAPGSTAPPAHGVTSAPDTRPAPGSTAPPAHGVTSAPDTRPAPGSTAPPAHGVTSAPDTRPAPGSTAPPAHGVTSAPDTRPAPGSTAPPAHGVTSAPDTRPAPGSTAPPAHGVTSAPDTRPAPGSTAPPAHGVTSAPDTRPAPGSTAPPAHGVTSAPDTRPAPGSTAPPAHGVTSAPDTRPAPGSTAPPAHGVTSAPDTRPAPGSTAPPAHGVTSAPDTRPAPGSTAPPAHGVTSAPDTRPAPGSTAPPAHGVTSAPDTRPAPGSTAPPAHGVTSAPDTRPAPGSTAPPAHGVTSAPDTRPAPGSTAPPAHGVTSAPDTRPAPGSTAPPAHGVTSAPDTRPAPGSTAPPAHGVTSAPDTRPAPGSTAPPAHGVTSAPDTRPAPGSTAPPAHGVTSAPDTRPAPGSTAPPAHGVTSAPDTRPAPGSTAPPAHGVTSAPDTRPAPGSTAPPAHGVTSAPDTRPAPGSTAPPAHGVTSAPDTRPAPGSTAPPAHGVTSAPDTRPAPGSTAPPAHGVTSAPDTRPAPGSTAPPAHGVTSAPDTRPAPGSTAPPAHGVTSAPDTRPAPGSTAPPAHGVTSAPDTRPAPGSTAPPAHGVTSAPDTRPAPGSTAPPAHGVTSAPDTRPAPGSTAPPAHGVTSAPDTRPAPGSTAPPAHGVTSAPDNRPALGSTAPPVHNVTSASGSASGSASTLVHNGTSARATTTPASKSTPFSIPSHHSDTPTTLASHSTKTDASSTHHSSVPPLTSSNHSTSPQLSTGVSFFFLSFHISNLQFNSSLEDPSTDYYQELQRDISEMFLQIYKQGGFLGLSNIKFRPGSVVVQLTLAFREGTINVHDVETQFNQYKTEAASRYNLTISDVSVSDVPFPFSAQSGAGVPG
# What was measured:
# Assay in all cases: SPR
# [1] = target: alpha-fetoprotein (AFP) antigen (UniProt P02771); conditions: SPR (Biacore X100, SA chip), 1x PBS pH 7.5, 0.1% Tween 20, 5 mM MgCl2 (NSE) or 2 mM MgCl2 (ProGRP31-98), temperature not stated, commercial protein, label: 5' biotin-TEG, single-stranded DNA
# [2] = target: carbohydrate antigen 125 (CA125) (human) (UniProt Q8WXI7); conditions: SPR (Biacore X100, SA chip), 1x PBS pH 7.5, 0.1% Tween 20, 5 mM MgCl2 (NSE) or 2 mM MgCl2 (ProGRP31-98), temperature not stated, recombinant protein, label: 5' biotin-TEG, single-stranded DNA
# [3] = target: T1, carcinoembryonic antigen (CEA) (human) (UniProt P06731); conditions: SPR (Biacore X100, SA chip), 1x PBS pH 7.5, 0.1% Tween 20, 5 mM MgCl2 (NSE) or 2 mM MgCl2 (ProGRP31-98), temperature not stated, recombinant protein, label: 5' biotin-TEG, single-stranded DNA
# T1 sequence (looked up, limits assumed): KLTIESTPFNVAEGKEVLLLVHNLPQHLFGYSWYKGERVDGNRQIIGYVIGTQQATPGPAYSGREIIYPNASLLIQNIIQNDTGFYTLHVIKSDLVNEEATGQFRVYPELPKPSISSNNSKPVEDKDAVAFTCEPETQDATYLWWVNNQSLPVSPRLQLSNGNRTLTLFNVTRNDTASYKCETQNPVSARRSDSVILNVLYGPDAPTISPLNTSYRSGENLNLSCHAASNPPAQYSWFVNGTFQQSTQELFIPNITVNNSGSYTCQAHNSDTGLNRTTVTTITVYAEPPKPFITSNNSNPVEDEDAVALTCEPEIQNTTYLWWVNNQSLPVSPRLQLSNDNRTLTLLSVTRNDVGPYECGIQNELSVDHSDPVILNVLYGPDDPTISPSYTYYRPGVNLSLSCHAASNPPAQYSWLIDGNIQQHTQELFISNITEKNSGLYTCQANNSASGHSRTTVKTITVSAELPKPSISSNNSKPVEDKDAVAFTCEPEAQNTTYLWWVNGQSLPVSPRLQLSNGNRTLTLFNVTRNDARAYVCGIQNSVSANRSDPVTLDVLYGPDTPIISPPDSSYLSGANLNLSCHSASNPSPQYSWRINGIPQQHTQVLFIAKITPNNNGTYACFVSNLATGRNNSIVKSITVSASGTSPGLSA
# mucin-1 (MUC1) (human) = conditions: SPR (Biacore X100, SA chip), 1x PBS pH 7.5, 0.1% Tween 20, 5 mM MgCl2 (NSE) or 2 mM MgCl2 (ProGRP31-98), temperature not stated, recombinant protein, label: 5' biotin-TEG, single-stranded DNA
# [4] = target: neuron specific enolase (NSE) (UniProt P09104); conditions: SPR (Biacore X100, SA chip), 1x PBS pH 7.5, 0.1% Tween 20, 5 mM MgCl2 (NSE) or 2 mM MgCl2 (ProGRP31-98), temperature not stated, recombinant protein, label: 5' biotin-TEG, single-stranded DNA
# [5] = target: T2, progastrin-releasing peptide (31-98) (ProGRP31-98) (UniProt P07492); conditions: little increase of signal; SPR (Biacore X100, SA chip); 1x PBS pH 7.5, 0.1% Tween 20, 5 mM MgCl2 (NSE) or 2 mM MgCl2 (ProGRP31-98); temperature not stated; commercial protein; residues 54-121; label: 5' biotin-TEG; single-stranded DNA
# T2 sequence (looked up): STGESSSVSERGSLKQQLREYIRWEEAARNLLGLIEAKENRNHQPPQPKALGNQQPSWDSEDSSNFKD
Sequence,binding result ([1]; weak response),binding result ([2]; weak response),binding result ([3]; weak response),binding result (mucin-1 (MUC1) (human); weak response),binding result ([4]; weak response),binding result ([1]; little increase of signal),binding result ([2]; little increase of signal),binding result ([3]; little increase of signal),binding result (mucin-1 (MUC1) (human); little increase of signal),Kd ([4]; NSE-immobilized CM5 chip),binding result [5]
CATGCGGAGTAGATTCGAGCCCAGATAGTCCCTGGTTATTTCCTTAGG [ProGRP-48-5BioTEG],binds more weakly,binds more weakly,binds more weakly,binds more weakly,binds more weakly,,,,,,
TCACACACGGACCTCTCCTACATTAATTGCGCATTTCGTT [NSE-Apt5-5BioTEG],,,,,,binds more weakly,binds more weakly,binds more weakly,binds more weakly,12 nM,binds more weakly
